These are yes or no findings as the source states them, for the method shown.
B1: T18-CcmI, full-length (protein, UniProt Q8EK38 1-415)
chain: MTTFWIFIALVMLISLTLIWIPHFRQQKLLRTEEAGVRKQTNLELFNERLATLEKELHEELLDQAEFDALKKELEISLLQDIKQASDDSLVNQIKPKSILWPSVMSVCLIAISGYLYQHLGAFENIGNTQAANPHAGMDTAQIMAQRVQMMEAQVQAEPENSQAWFSLGHAYISANQFDKAVAAFDKVIDLVGKHAELIGPKATALYYKAGQQMTPQVQALIDESLALDPQDPSTLLLVGMDAFFTAKYQKAINSWQTILDSNRPDVDRAALMNAIETANLRIQAETSGMPNDDVHKQAKVTSKSVSIAISISPELAAKAGPDDTIFVFARATEGPKVPLAATKVSAKSLPVTVTLDDSTGMGGDVKLSQTASVEVIAVLSKHGNIKPQAGDIQGKISKVNVGETANLVLDTQVQ
B2: T18-KatB (enzyme, UniProt Q8EHY4 1-486)
chain: MSQQYLTSQSGSPIADDQNSLSAGERGPLLLQDWHLIEKLAHFNRERIPERVVHAKGTGVYGTFTLTKDLSDYTIADHFNGVGKQTETFVRFSTVGGEMGSADAERDPRGFGLRFYTARGNHDIVGNNTPTFFLRDGIKFPDFIHTQKRNPLTNLKDPQAMWDFWSLNPEAMHQVTILMSDRGIPANYRQMHGYGSHTFSFWNAKGERFWVKFHFKSQQGVVNLSNEQADKLKGIDPDSSQRDMVVAITDGNFPRWTVNVQIMPEADANTYHINPFDLTKVWPHGDYPLIEIGVLELNRLPQNYFAEVEQVALAPSNLVPGVGASPDKMLQARLFAYADAQRYRIGANYNQLPVNCPHAAKANHHQRAGAMAGTQCPYHGSQTGGDASANYGPNSTIGALVEPANFAEPPLRLDGETARYSRYNQDDYTQAGNLYRIFSEEEKARLVATISGSLRQASMDVQQRMLAHFQKADADYGQRIKMALGL
B3: T18-CcmA, full-length (protein, UniProt Q8EK40 1-216)
chain: MTNIISVDTLLSASKLTCIREERILFDELSFEINAGDIVQIEGPNGAGKTSLLRILAGLSRPYAGQTFYVNEDINRCRDEYNEDLLYLGHLAGVKSELTAEENLNFNLRISGYDDFDTSAILAKVNLSGFEEALAGHLSAGQHRRTALARLWHNDCKIWILDEPFTAIDKRGVEELEQLFIKHADNGGCVILTTHQDMGIIKDDRLRKIRLDYRFV
B4: T18-CcmB, full-length (protein, UniProt Q8EK41 1-228)
chain: MKRGISFTQAFFTLLQRDLKIAIRHRGDIFNPLLFFIMVVTLFPLGIGPEPQMLARIAPGIIWVAALLASMLSLERLFKADFSDGSLEQMLLSPQPLAILVLAKVLAHWLLTGVPLILIAPLLAVLLNLEANSYGALIATLALGTPVLSLLGAIGVALTVGLRKGGVLLSLLILPLYIPVLIFATSAIDAAGMNLPYDGQLAIIGAMLIGSLTLAPFAIGASLRVSTN
B5: T18-CcmC, full-length (protein, UniProt Q8EK42 1-248)
chain: MWKWLHPYADPERAYKLSGTLFPWFAILACLFITVGTVWGLLFAPTDYQQGDSYRIIFIHVPAASMSMAAYMGMATAAFIGLVWQVKLADWAAASIAPIGAVITFIALFTGATWGKPMWGTWWVWDARLTSELVLLFLYLGVISLYASFEDKVLAARAAGILAIVGVINIPIIKYSVEWWSSLHQPSTIRITEKSTMSSEMLYPLLINILGFGLMIGAITIVRFRAEILARNGMRPWVRELAKAEEVK
B6: T18-CcmD, full-length (protein, UniProt Q8EK43 1-66)
chain: MQFDSISDFFNMGGYAFYVWLAYGVTFFCLSTLIITSARQKRKVLIEIAKKMNREERLKETRSNKS
B7: T18-CcmE, full-length (protein, UniProt Q8EK44 1-161)
chain: MNPRRKKRLTLAVALIGGVAAIASLLLYALNSNLNLFYTPSEIVNGKTDTGVKPEAGQRIRVGGMVTVGSMVRDPNSLHVQFAVHDSLGGEILVTYDDLLPDLFREGQGIVAQGVLGEDGKLAATEVLAKHDENYMPPEVAEAMGQKHEKLDYSQQKSATQ
B8: T18-CcmF, full-length (protein, UniProt Q8EK37 1-659)
chain: MIPELGHFSLIIGVAFAFLLTSVPLIGVARKDQYLVRYAWPLAYGMFFFIALSVVSLGYSFAVDDFSVAYVAHHSNSQLPIFFKIAAVWGGHEGSLLFWVFALSTWAASVALFSKGLEEVFTARVLAVLALIVIGFSLFMLLTSSPFERIFPMPAEGRDLNPMLQDVGLIFHPPMLYLGYVGFSVSFAFAIAALMSGHLDSAWARWSRPWTLAAWVFLTGGIALGSWWAYYELGWGGWWFWDPVENASFMPWLVGTALVHSLIVTEKRGAFRNWTVLLSIFAFSLSLLGTFIVRSGVLTSVHSFAADPSRGMFILLLLGLAIGGSLTLFAFRASEMSSPARFELKSKETMLLVCNVLLTVAAGTVLLGTLYPLLIDALGMGKISVGPPYFNAVFVPIVLVLFAFMGVGPIIRWKKSKAGELKRQLLVPALVSLVIGIVTPFIVDGAFNAWVACGIAAAAWIILATAKAAYSIVKPKDGEVSIARMGRSQLGMIIAHLGIAVSVIGATMVSNYSVEKSVRMGPGVSQELAGYTFKYLETKNVVGPNYTAQQGQIEIYKGDKLLTLLKPDRRQYNVRTMDMTEAGIDWGLFRDLYVTMGDPISSTEFAVRLNYKPFVRWLWFGAIFMMVGGFFAASDKRYRSKVAATVKPQAEKAKLATAQ
B9: T18-CcmG, full-length (protein, UniProt Q8EK36 1-184)
chain: MKKLVLFIPLVIFLGMGVFLYKGLFLNPQKLDSALEGKPIPAFQLERLETPNEMITNEQLKGKVALLNVWATWCPSCKYEHPFLVMLKRQNILPIYGINYRDERIPALEELRRQGDPYNINIYDKDGRLGLDLGVYGAPESFIVDHNGIIRYRYAGPIDQRVWSETLYPMIQQLQAEAAKDGAA
B10: T18-CcmH, full-length (protein, UniProt Q8EK35 1-159)
chain: MRTLTKIIGGLVLLLSMVTTVMATPVDTYEFKSPENQKRALELAHSLRCPQCQNQNLIDSNSPVASDLRLEVFKMVDEGKGDDEIIEFMTSRYGEFVLYKPKMETKTYILWLGPVGLLLLGLIVGFIFIRKQRITGAAGLEISAEDQKALDALLKRDSK

target: T25-HtpA (S. oneidensis); assay: two-hybrid; bacterial two-hybrid (BACTH, adenylate cyclase reconstitution) in E. coli BTH101: htpA in pKT25, target genes in pUT18; LB plates with 40 µg/mL X-gal and 0.5 mM IPTG, 30°C, 24 h; β-galactosidase activity

binding, no binding:
B1
B2
B3
B4
B5
B6
B7
B8
B9
B10
